These results are taken from ChEMBL document CHEMBL5233208, “Optimization of P2Y12 Antagonist Ethyl 6-(4-((Benzylsulfonyl)carbamoyl)piperidin-1-yl)-5-cyano-2-methylnicotinate (AZD1283) Led to the Discovery of an Oral Antiplatelet Agent with Improved Druglike Properties” (J Med Chem, 2019).

The chains behind the UniProt entries cited, without tags or fusion partners.
UniProt P33261, whole entry: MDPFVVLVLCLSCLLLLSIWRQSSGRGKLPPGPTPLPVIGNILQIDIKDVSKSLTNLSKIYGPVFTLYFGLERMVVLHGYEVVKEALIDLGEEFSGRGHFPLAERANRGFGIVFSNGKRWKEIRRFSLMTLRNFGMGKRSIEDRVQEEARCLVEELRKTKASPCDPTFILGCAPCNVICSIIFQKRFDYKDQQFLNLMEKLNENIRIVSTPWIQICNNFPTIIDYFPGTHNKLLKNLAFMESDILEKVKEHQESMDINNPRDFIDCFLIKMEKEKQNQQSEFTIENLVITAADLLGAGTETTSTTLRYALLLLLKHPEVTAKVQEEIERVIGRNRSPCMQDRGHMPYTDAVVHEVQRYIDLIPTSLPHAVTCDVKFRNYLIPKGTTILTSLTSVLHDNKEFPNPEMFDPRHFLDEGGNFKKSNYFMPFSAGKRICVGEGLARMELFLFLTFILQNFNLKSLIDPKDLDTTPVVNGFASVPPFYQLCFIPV

≈ marks a conversion by molar mass, not a printed value.

A short description of data set [1]: physchem. Conditions: simulated gi fluid, pH 6.8.
Data set [2] in a line: physchem. The following applies: buffer.
The next data set deals with Cytochrome P450 2C19 (Homo sapiens, UniProt P33261). As to the kind of experiment: Inhibition of CYP2C19 in human liver microsomes using S-mephenytoin as substrate preincubated for 10 mins followed by NADPH addition and measured after 15 mins by LC-MS/MS analysis. A general note: Liver microsomes are a subcellular fraction often used to study metabolism.
A short description of data set [3]: physchem. Conditions: simulated gi fluid, pH 1.2.

One may read the thermodynamic solubility as solubility found after equilibrating the solid with the medium. The term IC50 denotes the point on the concentration scale where inhibition reaches its midpoint. The low end stands for inhibition by little substance, the high end for a need for much substance. For the molecule `Cc1ccc(CS(=O)(=O)NC(=O)C2(C)CCN(c3nc4c(cc3C#N)C(=O)OC4)CC2)cc1`, the thermodynamic solubility at 24 h in “physchem [1]” was 90.9 µM (≈ 42.6 µg/mL); in the data set “physchem [2]”, 54.2 µM (≈ 25.4 µg/mL); in “physchem [3]” it was 4 µM (≈ 1.87 µg/mL). Further, on Cytochrome P450 2C19, the IC50 came to 50 µM.
`N#Cc1cc2c(nc1N1CCC(C(=O)NS(=O)(=O)Cc3ccccc3)CC1)COC2=O` yielded an IC50 on Cytochrome P450 2C19 of over 25 µM.
